From publication PMC4303003 come the findings set out here.

Common to all, as to assay: native gel or EMSA; BN-PAGE of purified AcrB proteins; loading buffer with 1% dodecylmaltoside, 0.1% Coomassie G-250, pH 7.0; 4-15% gradient gel, 15 mA, 4°C, 2 h; trimer and monomer bands quantified with ImageJ; trimer to monomers; both purified
In general terms: A gel shift assay detects complexes by their altered migration in electrophoresis.

For assay [1], the target named is AcrB_(P223G) (E. coli) (UniProt P31224).
The target in assay [2] is AcrB_(P223G/A209V) (E. coli) (UniProt P31224).
For assay [3], the target named is AcrB_(P223G/D256N) (E. coli) (UniProt P31224).
Assay [4] deals with AcrB_(P223G/D788K) (E. coli) (UniProt P31224).
Assay [5] concerns the target AcrB_(P223G/E810K) (E. coli) (UniProt P31224).
The target in assay [6] is AcrB_(P223G/G257V) (E. coli) (UniProt P31224).
The target in assay [7] is AcrB_(P223G/M662I) (E. coli) (UniProt P31224).
Assay [8] concerns the target AcrB_(P223G/P800S) (E. coli) (UniProt P31224).
In assay [9] the target is AcrB_(P223G/Q737L) (E. coli) (UniProt P31224).
The target in assay [10] is AcrB_(P223G/T199M) (E. coli) (UniProt P31224).

Results are given in words; binding and its absence hold for the method and conditions named. Some entries that bind do so weakly or less than the wild type.

Turning to “AcrB_(P223G) (from UniProt P31224 1-1049)”, the binding result in assay [1] is “binds weakly”. Regarding “AcrB_(P223G/A209V) (from UniProt P31224 1-1049)”, the binding entry in assay [2] is recorded as “binds weakly”. With “AcrB_(P223G/D256N) (from UniProt P31224 1-1049)”, the binding result in [3] is reported as “binds weakly”. Regarding “AcrB_(P223G/D788K) (from UniProt P31224 1-1049)”, in assay [4], the binding entry was “binds weakly”.

Regarding “AcrB_(P223G/E810K) (from UniProt P31224 1-1049)”, the binding entry in assay [5] is “binds weakly”. Take “AcrB_(P223G/G257V) (from UniProt P31224 1-1049)”: the binding result in assay [6] was “binds weakly”. Consider “AcrB_(P223G/M662I) (from UniProt P31224 1-1049)”, for which the binding entry in assay [7] was “binds weakly”.

For “AcrB_(P223G/P800S) (from UniProt P31224 1-1049)”, in assay [8], the binding entry is “binds weakly”. Turning to “AcrB_(P223G/Q737L) (from UniProt P31224 1-1049)”, the binding result in assay [9] is listed as “binds weakly”. Consider “AcrB_(P223G/T199M) (from UniProt P31224 1-1049)”, for which, in [10], the binding entry was “binds weakly”.
